Data published in PubChem BioAssay AID1487 (National Center for Advancing Translational Sciences (NCATS), 2009).
This is one part of the list. These are further read-outs of the screen, such as a control signal, another cell line or another target. No call is given for them. Most of these compounds were active or inconclusive in the main read-out, so they are no random draw. Words in brackets tell the shape of the fitted curve; partial curves, single points and poor fits give uncertain potencies.

Experiment: qHTS Assay for Modulators of Lamin A Splicing
Settings: HeLa LMNA splicing GFP/RFP minigene ratio, 48 h
Procedure, shortened: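 S3 HeLa cells stably expressing lamin A-EGFP splicing minigene plus DsRed2, 600 cells/well, 48 h compound exposure at 37C. Laser-scanning cytometry; analysed as GFP (500-530 nm)/RFP (575-640 nm) total intensity ratio; 0.5% DMSO vehicle.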

[1] = measured here: RFP viability control channel
[2] = measured here: GFP splicing reporter channel

SMILES | AC50 [1] | AC50 [2]
Cc1nn(-c2ccccc2)c(N2CCCC2)c1/C=N/NC(=O)c1cccc(S(=O)(=O)Nc2ccc(Cl)cc2)c1 | 28.2 µM [rising, single point] | 
COc1cc(C(=O)N/N=C\c2ccccc2)c([N+](=O)[O-])c(OC)c1OC | 35.5 µM [rising, single point] | 
COc1ccc(CNC(=O)c2cc3c(=O)n(Cc4ccc(OC)cc4)ccc3nc2C)cc1 | 35.5 µM [falling, single point] | 
CCCCCCNC(=O)CC(c1ccccc1)c1cc(Br)ccc1O (stereo not drawn) | 35.5 µM [falling, single point] | 35.5 µM [falling, single point]
CC(=O)Nc1nc(NC(=O)/C=C/c2ccccc2)n(-c2ccccc2)n1 | 35.5 µM [rising, single point] | 31.6 µM [rising, single point]
COc1ccc(CC(=O)Nc2ccc(-c3ccc4nnc(C)n4n3)cc2)cc1OC | 14.1 µM [rising, single point] | 
CCC(=O)NC(c1cccs1)c1cc([N+](=O)[O-])c2cccnc2c1O (stereo not drawn) | 7.08 µM [rising, full curve] | 
COc1cccc(CNC(=O)c2ccc3nc(CCc4ccccc4)oc3c2)c1OC |  | 12.6 µM [falling, partial curve]
COc1ccc2c(c1)C(=O)[C@H](O)[C@@H](c1ccc(OC)c(Br)c1)O2 |  | 22.4 µM [rising, single point]
N/C(=N\OC(=O)c1ccc(=O)n(Cc2ccc(Cl)cc2)c1)c1ccccn1 | 12.6 µM [falling, single point] | 
O=C(Nc1cccc(F)c1)c1ccc(CSc2ccccc2)o1 | 12.6 µM [rising, partial curve] | 
CSc1nnc(C)c(/C=C/Nc2ccc(F)cc2F)n1 | 17.8 µM [rising, single point] | 
O=c1cc(-c2c(F)c(F)c(F)c(F)c2F)oc2ccccc12 | 20 µM [rising, single point] | 
O=[N+]([O-])/C(C(Cl)=C(Cl)Cl)=C(\Nc1ccc(F)cc1)n1cncn1 |  | 35.5 µM [rising, single point]
COc1cc(/C=N/n2cnc3scc(-c4cccs4)c3c2=O)cc(OC)c1OC | 7.94 µM [rising, partial curve] | 
Cc1ccc2c(c1)C1CN(C)CCC1N2S(=O)(=O)c1ccc(Oc2ccc([N+](=O)[O-])cc2)cc1 (stereo not drawn) | 17.8 µM [falling, partial curve] | 15.8 µM [falling, partial curve, poor fit]
COC(CN(C(=O)CCl)C(C(=O)NC1CCCCC1)c1ccccc1C)OC (stereo not drawn) | 22.4 µM [falling, single point] | 
COc1ccccc1-c1nnc(-c2ccc(N3CCOCC3)cc2)o1 | 0.0447 µM [rising, full curve, poor fit] | 
O=C(Nc1nnc(SCC(=O)N2CCOCC2)s1)c1ccccc1 |  | 11.2 µM [rising, single point]
CCSc1nnc(NC(=O)c2cccc(S(=O)(=O)N(C)c3ccccc3)c2)s1 | 35.5 µM [rising, single point] | 
Cc1ccc(-c2nc3ncccc3o2)cc1NC(=O)c1cccnc1 | 0.794 µM [rising, partial curve, poor fit] | 
COc1ccc(CCN2C(=O)CN(C3CCCCCC3)C(=O)C2c2ccc(Cl)cc2)cc1OC (stereo not drawn) | 20 µM [falling, partial curve, poor fit] | 7.94 µM [falling, full curve, poor fit]
COc1cc(/C=N/NC(N)=S)ccc1OCC(=O)Nc1ccc(C)c(C)c1 | 6.31 µM [rising, single point] | 
Cc1cc(C)nc(SC2c3cccc4cccc(c34)C2NS(=O)(=O)c2ccccc2)n1 (stereo not drawn) | 35.5 µM [rising, single point] | 31.6 µM [rising, single point]
Cc1ccc(SCc2nc3ccccc3n2CC(=O)Nc2ccccc2)cc1 | 11.2 µM [falling, partial curve] | 11.2 µM [falling, partial curve]
O=C(Nc1ccc(Cl)cc1)c1ccsn1 | 2.51 µM [rising, single point] | 
CC(C)[C@H](NC(=O)c1ccccc1)C(=O)OCC(=O)/C=C1/N(C)c2ccccc2C1(C)C | 31.6 µM [rising, single point] | 28.2 µM [rising, single point]
COc1ccc(-c2csc(NC(=O)CSc3ncn[nH]3)n2)cc1OC | 0.02 µM [rising, full curve, poor fit] | 

SMILES | AC50 [1] | AC50 [2]
CC1(C)CC(=O)C2=C(C1)C(c1cn(-c3ccccc3)nc1-c1ccccc1)C(C#N)=C(N)O2 (stereo not drawn) | 25.1 µM [rising, single point] | 
Cc1nc2c(C(=O)NCc3cccs3)cnn2c(C)c1Cc1ccc(F)cc1 | 0.1 µM [rising, full curve, poor fit] | 
Cc1cccc(CN2C(=O)c3ccccc3Sc3ccc(C(=O)NCCCN4CCOCC4)cc32)c1 | 20 µM [falling, partial curve, poor fit] | 15.8 µM [falling, partial curve]
COC(=O)N/N=C/c1cn(Cc2ccc(Cl)cc2Cl)c2ccccc12 | 11.2 µM [rising, partial curve] | 1.41 µM [rising, full curve]
COC(=O)c1nnn(CC(=O)NC(=O)Nc2cccc(Cl)c2C)c1C(=O)OC |  | 3.55 µM [rising, single point]
Cc1sc2ncnc(SCC(=O)NC(=O)NCc3ccco3)c2c1C | 12.6 µM [rising, partial curve] | 11.2 µM [rising, single point]
O=C(c1ccc2c(c1)OCCO2)C1CCN(C(=O)c2ccc(F)cc2)CC1 | 20 µM [rising, single point] | 14.1 µM [rising, single point]
O=C(Nc1ccc(Cl)cc1F)c1cc(S(=O)(=O)NC2CCCCCC2)ccc1F | 35.5 µM [falling, single point] | 35.5 µM [falling, single point]
COc1ccc(NC(=O)Cn2ccn(-c3ccc(C)c(C)c3)c(=O)c2=O)cc1Cl |  | 0.00891 µM [falling, full curve, poor fit]
COc1ccccc1CNc1ncnc2ccc(-c3ccc4c(c3)OCO4)cc12 | 22.4 µM [falling, single point] | 12.6 µM [falling, partial curve]
Cc1cccc(-c2nc3cc(NC(=O)COc4ccccc4F)ccc3o2)c1 | 1 µM [rising, full curve] | 0.708 µM [rising, full curve, poor fit]
Cc1cc(/C=C(\C#N)C(=O)Nc2ccc(F)cc2)c(C)n1-c1ccc(N2CCOCC2)c([N+](=O)[O-])c1 | 7.94 µM [rising, partial curve] | 
COc1cccc(-c2nc(CSCC(=O)NCC3CCCO3)c(C)o2)c1 (stereo not drawn) | 14.1 µM [rising, single point] | 8.91 µM [rising, partial curve, poor fit]
CC(C)OC(=O)c1cc(C(=O)c2cc(Br)ccc2O)coc1=N | 0.562 µM [falling, full curve, poor fit] | 
CCOC(=O)c1ccccc1NS(=O)(=O)c1ccc(OCC)cc1 | 8.91 µM [rising, partial curve, poor fit] | 
Cc1nnc(SCC(=O)NC(C)(C)C)n1NCc1ccc(Cl)cc1 | 6.31 µM [falling, partial curve, poor fit] | 
COC(=O)c1sccc1NC(=S)N1CCN(c2cccc(C)c2C)CC1 | 35.5 µM [rising, single point] | 31.6 µM [rising, single point]
O=C(O)c1ccc(NC(=O)C2C3CCC(C3)C2C(=O)O)cc1 (stereo not drawn) | 4.47 µM [falling, full curve, poor fit] | 
Cc1ccc(S(=O)(=O)Oc2ccccc2/C=N/NC(=O)c2c(Cl)cnn2C)cc1 | 15.8 µM [rising, single point] | 
Cc1ccc(-c2csc3ncnc(N4CCN(C(=O)c5ccccc5)CC4)c23)cc1 | 35.5 µM [rising, single point] | 
CCOc1ccc(-c2cc3c(=O)n(CC(=O)NCc4ccccc4)ccn3n2)cc1 | 0.01 µM [rising, full curve, poor fit] | 0.02 µM [rising, full curve, poor fit]
CCOC(=O)c1sc(Nc2nc(C)cc(OC)n2)nc1C | 22.4 µM [falling, partial curve, poor fit] | 
COc1ccc(CNC(=O)CNS(=O)(=O)c2ccc(Cl)cc2)cc1 | 10 µM [rising, single point] | 
CC(/C=C1\SC(=O)N(CC(=O)Nc2cccc(O)c2)C1=O)=C\c1ccccc1 | 25.1 µM [rising, single point] | 
O=C(CC(O)(C(F)(F)F)C(F)(F)F)Nc1ccc(Cl)c(Cl)c1 | 6.31 µM [rising, full curve] | 7.08 µM [rising, full curve, poor fit]
COc1cc2c(cc1OC)C(C)N(C(=O)c1cc3ccccc3o1)CC2 (stereo not drawn) |  | 3.98 µM [falling, full curve]
Cc1cccc(-c2nsc(SCC(=O)Nc3ccc4c(c3)OCO4)n2)c1 | 20 µM [rising, single point] | 

Shown with tabs: part of the list above
SMILES	AC50 [1]	AC50 [2]
Cc1cccc(CN2C(=O)c3ccccc3Sc3ccc(C(=O)NCCCN4CCOCC4)cc32)c1	20 µM [falling, partial curve, poor fit]	15.8 µM [falling, partial curve]
COC(=O)N/N=C/c1cn(Cc2ccc(Cl)cc2Cl)c2ccccc12	11.2 µM [rising, partial curve]	1.41 µM [rising, full curve]
COC(=O)c1nnn(CC(=O)NC(=O)Nc2cccc(Cl)c2C)c1C(=O)OC		3.55 µM [rising, single point]
Cc1sc2ncnc(SCC(=O)NC(=O)NCc3ccco3)c2c1C	12.6 µM [rising, partial curve]	11.2 µM [rising, single point]
COc1ccc(NC(=O)Cn2ccn(-c3ccc(C)c(C)c3)c(=O)c2=O)cc1Cl		0.00891 µM [falling, full curve, poor fit]
COc1ccccc1CNc1ncnc2ccc(-c3ccc4c(c3)OCO4)cc12	22.4 µM [falling, single point]	12.6 µM [falling, partial curve]
Cc1cc(/C=C(\C#N)C(=O)Nc2ccc(F)cc2)c(C)n1-c1ccc(N2CCOCC2)c([N+](=O)[O-])c1	7.94 µM [rising, partial curve]	
COc1cccc(-c2nc(CSCC(=O)NCC3CCCO3)c(C)o2)c1 (stereo not drawn)	14.1 µM [rising, single point]	8.91 µM [rising, partial curve, poor fit]
CC(C)OC(=O)c1cc(C(=O)c2cc(Br)ccc2O)coc1=N	0.562 µM [falling, full curve, poor fit]	
CCOC(=O)c1ccccc1NS(=O)(=O)c1ccc(OCC)cc1	8.91 µM [rising, partial curve, poor fit]	
COC(=O)c1sccc1NC(=S)N1CCN(c2cccc(C)c2C)CC1	35.5 µM [rising, single point]	31.6 µM [rising, single point]
Cc1ccc(S(=O)(=O)Oc2ccccc2/C=N/NC(=O)c2c(Cl)cnn2C)cc1	15.8 µM [rising, single point]	
Cc1ccc(-c2csc3ncnc(N4CCN(C(=O)c5ccccc5)CC4)c23)cc1	35.5 µM [rising, single point]	
CCOc1ccc(-c2cc3c(=O)n(CC(=O)NCc4ccccc4)ccn3n2)cc1	0.01 µM [rising, full curve, poor fit]	0.02 µM [rising, full curve, poor fit]
COc1ccc(CNC(=O)CNS(=O)(=O)c2ccc(Cl)cc2)cc1	10 µM [rising, single point]	
O=C(CC(O)(C(F)(F)F)C(F)(F)F)Nc1ccc(Cl)c(Cl)c1	6.31 µM [rising, full curve]	7.08 µM [rising, full curve, poor fit]
Cc1cccc(-c2nsc(SCC(=O)Nc3ccc4c(c3)OCO4)n2)c1	20 µM [rising, single point]	
